Test results taken from article PMC4130184.
No constants are given. Whether binding was seen depends on the method and setting. For some assays here: Binding seen in cells or lysates may run through a third protein. Some binding calls cover weakened binding; strength is not graded here. Where a sequence is shown, tags or fusion partners need not be part of it. Values belong to the binder of their own block, whether it stands above or below them.

Key:
[1] = biological target: recombinant CSP41b (pET_His1a, E. coli) (Arabidopsis thaliana) (UniProt Q9SA52); assay: native gel or EMSA; 2D Native PAGE/SDS PAGE: recombinant PRIN2, CSP41b and a 1:1 mixture incubated in binding buffer, run on 4–12% Native Bis-Tris Gel, strips loaded on 12% SDS PAGE; detection with anti-His peroxidase; both purified
[2] = biological target: T1, recombinant PRIN2 (pET_His1a, E. coli) (Arabidopsis thaliana) (UniProt Q9XIK0); assay: as above
T1 sequence: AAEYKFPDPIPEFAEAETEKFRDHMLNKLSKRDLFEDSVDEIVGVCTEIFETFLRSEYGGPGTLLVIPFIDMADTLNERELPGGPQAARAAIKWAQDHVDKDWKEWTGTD

[3] = biological target: T1, recombinant PRIN2 (pET_His1a, E. coli) (Arabidopsis thaliana); assay: native gel or EMSA; EMSA with biotin-labelled psaA promoter probe (-196 to +1), also psbA-198 bp probe; 3 μg of each purified protein, DNA/protein molar ratio 1:100; room temperature 30 min; 6% native TBE-PAGE; heteromeric complex seen on DNA; both purified
[4] = biological target: T2, full length PRIN2-cMyc fusion protein expressed in Arabidopsis protoplasts (Arabidopsis thaliana) (UniProt Q9XIK0); assay: co-IP; PRIN2-cMyc and CSP41b-HA expressed in Arabidopsis protoplasts; Co-IP with anti-cMyc antibody on protein G magnetic beads; blot with anti-HA peroxidase
T2 sequence: T1 sequence

B1: recombinant CSP41b (pET_His1a, E. coli) (protein, UniProt Q9SA52 51-378)
chain: SSEKKILIMGGTRFIGLFLSRILVKEGHQVTLFTRGKSPIAKQLPGESDQDFADFSSKILHLKGDRKDYDFVKSSLSAEGFDVVYDINGREAEEVEPILEALPKLEQYIYCSSAGVYLKSDILPHCEEDAVDPKSRHKGKLETESLLQSKGVNWTSIRPVYIYGPLNYNPVEEWFFHRLKAGRPIPVPNSGIQISQLGHVKDLATAFLNVLGNEKASREIFNISGEKYVTFDGLAKACAKAGGFPEPEIVHYNPKEFDFGKKKAFPFRDQHFFASVEKAKHVLGWKPEFDLVEGLTDSYNLDFGRGTFRKEADFTTDDMILSKKLVLQ
binding [1]: binds
binding [2]: binds
binding [3]: binds

binding [4]: binds
B2: full length CSP41b-HA fusion protein expressed in Arabidopsis protoplasts (protein, UniProt Q9SA52 51-378)
chain: B1 chain

binding [2]: binds
B3: recombinant PRIN2 (pET_His1a, E. coli) (protein, UniProt Q9XIK0 70-179)
chain: T1 sequence
